According to PMC10607241:
These are yes or no findings as the source states them, for the method shown. Some binding calls cover weakened binding; strength is not graded here. Sequences can lack the tags named with a protein.

Chains of the proteins cited; added tags and fusions are not shown. Residues count along the entry.
UniProt P08121, residues 155-1219: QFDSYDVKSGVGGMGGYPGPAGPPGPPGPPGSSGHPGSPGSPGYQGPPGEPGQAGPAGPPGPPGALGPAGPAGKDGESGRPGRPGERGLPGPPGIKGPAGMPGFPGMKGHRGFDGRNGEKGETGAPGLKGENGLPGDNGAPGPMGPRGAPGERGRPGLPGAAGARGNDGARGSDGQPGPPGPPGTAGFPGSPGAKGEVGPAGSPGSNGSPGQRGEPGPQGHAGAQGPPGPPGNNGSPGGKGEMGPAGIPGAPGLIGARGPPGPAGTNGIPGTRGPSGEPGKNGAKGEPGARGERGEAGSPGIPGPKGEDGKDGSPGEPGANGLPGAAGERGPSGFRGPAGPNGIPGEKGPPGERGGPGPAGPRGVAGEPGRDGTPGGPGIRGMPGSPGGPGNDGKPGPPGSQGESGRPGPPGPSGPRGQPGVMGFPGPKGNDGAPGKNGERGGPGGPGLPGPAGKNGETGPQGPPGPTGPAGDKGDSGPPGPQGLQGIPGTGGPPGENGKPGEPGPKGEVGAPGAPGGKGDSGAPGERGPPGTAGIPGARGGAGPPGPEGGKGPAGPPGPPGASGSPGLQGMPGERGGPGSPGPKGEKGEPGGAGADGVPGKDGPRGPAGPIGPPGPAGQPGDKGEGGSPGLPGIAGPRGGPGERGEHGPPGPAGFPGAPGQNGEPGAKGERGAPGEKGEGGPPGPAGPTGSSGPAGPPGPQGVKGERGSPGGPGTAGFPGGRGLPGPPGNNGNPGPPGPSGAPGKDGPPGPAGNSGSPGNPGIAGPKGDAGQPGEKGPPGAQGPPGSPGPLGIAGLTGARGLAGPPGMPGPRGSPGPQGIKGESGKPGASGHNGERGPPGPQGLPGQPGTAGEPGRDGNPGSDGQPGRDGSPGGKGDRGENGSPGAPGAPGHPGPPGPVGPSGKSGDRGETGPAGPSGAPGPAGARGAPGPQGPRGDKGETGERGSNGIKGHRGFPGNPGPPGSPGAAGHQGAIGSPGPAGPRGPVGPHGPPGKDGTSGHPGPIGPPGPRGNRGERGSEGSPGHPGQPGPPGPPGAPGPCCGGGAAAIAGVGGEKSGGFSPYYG

Target: purified, pepsin-treated, full-length collagen III (mouse (adult murine skin)) (UniProt P08121)
Assay: ELISA; ELISA-like assay; Toolkit peptides coated at 10 µg/mL (1.0 µg/well) in 20 mM acetic acid overnight at 4 °C, collagen III at 5.0 µg/well; blocked with 5% BSA in HBST; 25 µM His-FKBP22 overnight at 4 °C in HBS (10 mM HEPES, pH 7.4, 0.15 M NaCl, 1 mM CaCl2); detected with HRP-conjugated 6xHis-tag antibody; A450, mean of the five lowest signals subtracted as baseline; both purified

B1: recombinant human FKBP22 with an amino terminal His-tag (His-FKBP22) (enzyme, UniProt Q9NWM8 20-211)
chain: ALIPEPEVKIEVLQKPFICHRKTKGGDLMLVHYEGYLEKDGSLFHSTHKHNNGQPIWFTLGILEALKGWDQGLKGMCVGEKRKLIIPPALGYGKEGKGKIPPESTLIFNIDLLEIRNGPRSHESFQEMDLNDDWKLSKDEVKAYLKKEFEKHGAVVNESHHDALVEDIFDKEDEDKDGFISAREFTYKHDEL
binding: binds
